No constants are given. Whether binding was seen depends on the method and setting. In cells and extracts the contact can be indirect. Some entries that bind do so weakly or less than the wild type. Where a sequence is shown, tags or fusion partners need not be part of it.

By UniProt entry, the sequences of proteins in these tests, tags left out. Where a name states a change or a piece, a line headed by the entry shows the natural chain unless it says otherwise.
UniProt P21860: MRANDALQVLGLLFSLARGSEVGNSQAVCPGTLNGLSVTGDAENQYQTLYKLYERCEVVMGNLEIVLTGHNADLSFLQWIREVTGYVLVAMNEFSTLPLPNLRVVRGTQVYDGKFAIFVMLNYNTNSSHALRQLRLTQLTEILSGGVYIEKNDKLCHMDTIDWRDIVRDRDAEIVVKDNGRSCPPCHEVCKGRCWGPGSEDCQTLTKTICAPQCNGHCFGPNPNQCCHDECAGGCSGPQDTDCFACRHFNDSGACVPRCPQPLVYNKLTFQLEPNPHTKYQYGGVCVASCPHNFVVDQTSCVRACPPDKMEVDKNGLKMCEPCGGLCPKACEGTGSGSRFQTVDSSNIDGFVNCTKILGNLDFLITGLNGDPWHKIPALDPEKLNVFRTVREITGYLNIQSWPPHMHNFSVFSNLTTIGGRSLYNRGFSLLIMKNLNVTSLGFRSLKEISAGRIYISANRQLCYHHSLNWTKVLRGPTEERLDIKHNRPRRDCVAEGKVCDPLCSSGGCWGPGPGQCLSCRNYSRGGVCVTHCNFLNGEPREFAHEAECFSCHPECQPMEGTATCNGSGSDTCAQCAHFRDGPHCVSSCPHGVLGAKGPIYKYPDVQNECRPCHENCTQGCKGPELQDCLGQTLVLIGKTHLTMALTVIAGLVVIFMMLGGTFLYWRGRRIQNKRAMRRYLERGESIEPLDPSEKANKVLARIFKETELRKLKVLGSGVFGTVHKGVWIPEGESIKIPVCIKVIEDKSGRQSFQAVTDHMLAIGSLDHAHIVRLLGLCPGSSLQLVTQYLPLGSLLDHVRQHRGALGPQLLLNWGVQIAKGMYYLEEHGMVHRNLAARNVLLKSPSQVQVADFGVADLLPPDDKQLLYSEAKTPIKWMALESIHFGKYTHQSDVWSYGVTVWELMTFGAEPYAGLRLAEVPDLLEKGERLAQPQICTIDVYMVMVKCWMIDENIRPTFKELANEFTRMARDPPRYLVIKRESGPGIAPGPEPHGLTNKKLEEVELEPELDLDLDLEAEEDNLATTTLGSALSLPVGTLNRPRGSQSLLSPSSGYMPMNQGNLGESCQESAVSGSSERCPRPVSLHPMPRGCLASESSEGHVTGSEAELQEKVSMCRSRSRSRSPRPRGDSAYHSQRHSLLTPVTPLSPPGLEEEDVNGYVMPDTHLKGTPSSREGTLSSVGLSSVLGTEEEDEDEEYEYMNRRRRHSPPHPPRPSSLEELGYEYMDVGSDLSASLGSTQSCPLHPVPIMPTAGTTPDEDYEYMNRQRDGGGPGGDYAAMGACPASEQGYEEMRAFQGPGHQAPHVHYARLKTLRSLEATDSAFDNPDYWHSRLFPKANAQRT

Test [1] deals with T1, thioredoxin-heregulin fusion with a C-terminal His and S-tag (trx-hrg) (human).
T1 sequence: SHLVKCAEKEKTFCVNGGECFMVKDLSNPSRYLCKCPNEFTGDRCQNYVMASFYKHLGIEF
Kind of test: pull-down on agarose-bound hrg (FIG. 2B).

The target is the same in test [2]. Kind of test: pull-down on trx-hrg coupled S-protein agarose.
Test [3] has the same target. Kind of test: pull-down on immobilized S-tagged hrg (FIG. 12B).

For the substance “HER3-ECD^I-IV that was protected by hrg during proteolytic digestion (from UniProt P21860 20-270; P21860 271-643) (receptor)”, the binding entry in test [1] and in test [2] was “binds” each time.
For the substance “HER3^I-IV (residues 20-643) in the pMT/BiP/V5-His-A expression vector (from UniProt P21860 20-643) (receptor)”, the binding result in test [2] and in test [3] was “binds” in each case.
“Soluble extracellular domains of recombinant HER3 (HER3-ECD^I-IV), purified from Chinese hamster ovary cells (from UniProt P21860 20-643) (receptor)”: the binding entry in test [1] and in test [2] was “binds” each time.

The record behind these values is patent publication US20030143568A1.
